Here are results for one compound from patent US20170105999A1, “METHOD FOR TREATING DRUG RESISTANT CANCER” (NATIONAL YANG MING UNIVERSITY, priority 2014, published 2017).

In one test the test system is drug resistant cancer. In words: Clinical observation study, prochlorperazine added as maintenance therapy. The settings on record: after prochlorperazine treatment added to salvage therapy; patients.
The subject of test [1] is A549-ON (overexpression Oct4 and Nanog). The experiment in a line: cells. The settings on record: 48 h, read-out: IC50 for prochlorperazine. How it is done:
(§1) Cells were plated in 96-well plates at a density of 2000 cells per well in triplicate. The cells were treated on the third day (to ensure proper plating efficiency and vitality) to indicated agents for 48 hrs. […] Cytotoxicity was assessed using the sulforhodamine B (SRB) assay (23). Briefly, the medium was discarded, and the adherent cells were fixed by 100 μl of cold 10% trichioroacetic acid (w/v) in each well for 1 h at 4° C. After fixation, cells were stained with 100 μl/well of 0.4% (w/v, in 1% acetic acid) SRB solution for 30 min at room temperature, and then washed 5 times with 1% acetic acid. After air-drying, 100 μl of 10 mM Tris base was added to each well and the absorbance was read at 530 nm. Cytotoxicity is expressed as the percent of cells in drug treated wells relative to number of cells in the solvent only control (set to 100%). Each experiment was performed independently at least 2 times in triplicate and cytotoxicity is given as means ±SD.
(§2) A549, A549-ON, CL97, CL141, HCC827, and H441 were lung adenocarcinoma cell lines. CL152, H2170, and H226 were squamous cell carcinoma cell lines. Cell viability was determined by SRB assay. […] To determine whether side population (SP) cells, which represent a cell population with CSC characteristics, exist in NSCLC cell lines, we stained the cells with the fluorescent dye, Hoechst 33342, and analyzed the cells with flow cytometry.

The subject of the next test is H2170. The experiment in a line: cells. To be noted: Homo sapiens, NCI-H2170, 48 h, read-out: IC50 for prochlorperazine. How it is done: as §1, §2
The next test relates to H441. In words: cells. To be noted: Homo sapiens, NCI-H441, 48 h, read-out: IC50 for prochlorperazine. As to the method: as §1, §2
The test system of another test is H1299. In words: cells. The settings on record: Homo sapiens, NCI-H1299, 48 h, read-out: IC50 for prochlorperazine. As to the method: as §1, §2
Another test relates to HCC827. The experiment in a line: cells. To be noted: Homo sapiens, HCC827, 48 h, read-out: IC50 for prochlorperazine. How it is done:
as §1, §2

A further test has as its system CL97. In words: cells. To be noted: Homo sapiens, CL97, 48 h, read-out: IC50 for prochlorperazine. How it is done: as §1, §2
The test system of another test is A549. In words: cells. To be noted: Homo sapiens, A549, 48 h, read-out: IC50 for prochlorperazine. How it is done: as §1, §2
In the next test the test system is H226. In words: cells. The settings on record: Homo sapiens, NCI-H226, 48 h, read-out: IC50 for prochlorperazine. How it is done: as §1, §2
The test system of a further test is NSCLC cell lines. In words: cells. The settings on record: 48 h, read-out: IC50 values in all cancer cell lines. As to the method:
as §1, §2

In a further test the test system is CL141. The experiment in a line: Cytotoxicity, sulforhodamine B (SRB) assay. It counts as cell-based. To be noted: read-out: IC50 for prochlorperazine; CL141, adenocarcinoma, EGFR WT; 48 hours. How it is done: as §1, §2
A further test concerns CL152. The experiment in a line: Cytotoxicity, sulforhodamine B (SRB) assay. The settings on record: read-out: IC50 for prochlorperazine; CL152, squamous cell carcinoma, EGFR WT; 48 hours. Format: cell-based. How it is done:
as §1, §2
In general terms: In SRB staining, fixed cells bind dye roughly in proportion to their protein.

A further test deals with SK-Hep 1. In words: cells. The settings on record: Homo sapiens, SK-HEP1, read-out: IC50 for prochlorperazine. How it is done:
as §1

A further test has as its system HT29. In words: cells. The settings on record: Homo sapiens, HT-29, read-out: IC50 for prochlorperazine. How it is done: as §1

Each structure is given as a SMILES string.

As for `CN1CCN(CCCN2c3ccccc3Sc3ccc(Cl)cc32)CC1` [prochlorperazine], the “Median OS (overall survival)” value in the test on drug resistant cancer is 13.5 (7.4-21.4) months. The IC50 – broadly, the concentration at which inhibition is half-maximal – in [1] is 21 µM; in the test with H2170 it was 24.7 ± 0.4 µM; in the test with H441 it was 17.7 ± 1.3 µM; in the test with H1299 it was 27.6 ± 8.8 µM; with HCC827, > 20 µM; in the test with CL97 it was 13 ± 1.04 µM. The IC50 was 21.5 ± 1.1 µM in the test on A549; 21.2 ± 1 µM with H226; ~20 µM with NSCLC cell lines; 12.7 ± 1 µM in the test on CL141; 16.6 ± 2.4 µM with CL152; > 20 µM in the test with SK-Hep 1. Further, the half-maximal inhibitory concentration (IC50) with HT29 came out at 13.5 ± 0.05 µM.
